These results are taken from paper PMC5395654.

The assay concerns the target hemolysin-coregulated protein 1 (Hcp1), His-tagged (E. coli K1 RS218). Nature of the assay: co-IP; HBMEC cells treated with His-tagged Hcp1, lysed (1% NP-40, 150 mM NaCl); precipitated with anti-His antibody on Protein A beads (IgG control); Western blot with antibodies to the candidates; only the target purified. A general note: A western blot detects proteins with antibodies after separation by electrophoresis.

These are yes or no findings as the source states them, for the method shown. In cells and extracts the contact can be indirect. Binding calls can cover weak binding; strength is not graded here.

B1: Rho GTPase activating protein 24 (ARHGAP24) (protein, UniProt Q8N264 1-748)
chain: MEENNDSTENPQQGQGRQNAIKCGWLRKQGGFVKTWHTRWFVLKGDQLYYFKDEDETKPLGTIFLPGNKVSEHPCNEENPGKFLFEVVPGGDRDRMTANHESYLLMASTQNDMEDWVKSIRRVIWGPFGGGIFGQKLEDTVRYEKRYGNRLAPMLVEQCVDFIRQRGLKEEGLFRLPGQANLVKELQDAFDCGEKPSFDSNTDVHTVASLLKLYLRELPEPVIPYAKYEDFLSCAKLLSKEEEAGVKELAKQVKSLPVVNYNLLKYICRFLDEVQSYSGVNKMSVQNLATVFGPNILRPKVEDPLTIMEGTVVVQQLMSVMISKHDCLFPKDAELQSKPQDGVSNNNEIQKKATMGQLQNKENNNTKDSPSRQCSWDKSESPQRSSMNNGSPTALSGSKTNSPKNSVHKLDVSRSPPLMVKKNPAFNKGSGIVTNGSFSSSNAEGLEKTQTTPNGSLQARRSSSLKVSGTKMGTHSVQNGTVRMGILNSDTLGNPTNVRNMSWLPNGYVTLRDNKQKEQAGELGQHNRLSTYDNVHQQFSMMNLDDKQSIDSATWSTSSCEISLPENSNSCRSSTTTCPEQDFFGGNFEDPVLDGPPQDDLSHPRDYESKSDHRSVGGRSSRATSSSDNSETFVGNSSSNHSALHSLVSSLKQEMTKQKIEYESRIKSLEQRNLTLETEMMSLHDELDQERKKFTMIEIKMRNAERAKEDAEKRNDMLQKEMEQFFSTFGELTVEPRRTERGNTIWIQ
As to B1, the binding result is “binds”.
